Experimental data as given in patent US20250082781A1, “METHODS OF LOWERING BLOOD GLUCOSE AND TREATING TYPE 2 DIABETES BY ACTIVATION OF PDE4D3” (Salk Institute for Biological Studies, priority 2021, published 2025).

Assay: Serum leptin levels after FGF1 injection
Format: in vivo, mouse
Details: 30 min after FGF1 injection

In the case of “FGF1: Recombinant fibroblast growth factor 1 protein, dissolved in PBS, injected subcutaneously”, the HFD-fed serum leptin (HFD-fed) is reported as 121.25 ± 6 ng/mL and the “Chow -fed serum leptin” value (chow-fed) is reported as 0.95 ± 0.15 ng/mL.
